Publication PMC10113255, “PHF14 enhances DNA methylation of SMAD7 gene to promote TGF-β-driven lung adenocarcinoma metastasis”
For at least one entry, the source does not settle the construct or the ends of the probe. The comparison behind a weaker result is the experiment's own reference, which may not be listed here. For some assays here: At least one verdict rests on a figure or table, not on a statement of the authors. Protein sequences can lack the tags named with them.

Experiments:
[1] = tested on: T1, PHF14 full-length WT (Homo sapiens); assay: EMSA; conditions: EMSA: LightShift kit protocol, 0.5x TBE native PAGE, buffer not stated; recombinant protein; protein details: His; label: biotin (EMSA)
T1 sequence (looked up, limits assumed): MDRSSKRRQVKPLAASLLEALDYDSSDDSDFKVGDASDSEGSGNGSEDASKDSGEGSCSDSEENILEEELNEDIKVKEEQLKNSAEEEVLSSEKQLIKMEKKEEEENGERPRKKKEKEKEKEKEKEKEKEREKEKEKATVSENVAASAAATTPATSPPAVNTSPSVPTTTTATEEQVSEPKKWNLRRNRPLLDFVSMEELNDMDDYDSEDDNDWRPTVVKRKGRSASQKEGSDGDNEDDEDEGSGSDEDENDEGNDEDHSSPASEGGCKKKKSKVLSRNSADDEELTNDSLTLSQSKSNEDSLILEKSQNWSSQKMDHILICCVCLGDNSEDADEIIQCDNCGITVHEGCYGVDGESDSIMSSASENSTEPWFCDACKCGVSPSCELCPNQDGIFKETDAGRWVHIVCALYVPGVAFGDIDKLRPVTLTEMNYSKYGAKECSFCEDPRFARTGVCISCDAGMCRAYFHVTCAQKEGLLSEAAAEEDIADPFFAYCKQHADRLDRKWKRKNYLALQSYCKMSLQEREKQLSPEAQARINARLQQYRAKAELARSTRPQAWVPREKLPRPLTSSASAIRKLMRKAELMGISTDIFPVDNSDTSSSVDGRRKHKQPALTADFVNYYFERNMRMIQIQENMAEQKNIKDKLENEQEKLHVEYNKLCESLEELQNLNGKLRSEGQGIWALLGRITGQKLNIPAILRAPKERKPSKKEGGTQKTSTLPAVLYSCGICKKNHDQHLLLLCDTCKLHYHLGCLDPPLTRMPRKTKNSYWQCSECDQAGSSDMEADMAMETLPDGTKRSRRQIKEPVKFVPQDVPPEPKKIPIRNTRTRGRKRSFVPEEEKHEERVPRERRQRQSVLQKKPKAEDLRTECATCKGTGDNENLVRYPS

[2] = biological target: T2, PHF14 ePHD domain WT (Homo sapiens) (UniProt O94880); assay: EMSA; conditions: EMSA: LightShift kit protocol, 0.5x TBE native PAGE, buffer not stated; recombinant protein; protein details: His (EMSA, purification method), FLAG (SPR); label: biotin (EMSA)
T2 sequence (looked up, limits assumed): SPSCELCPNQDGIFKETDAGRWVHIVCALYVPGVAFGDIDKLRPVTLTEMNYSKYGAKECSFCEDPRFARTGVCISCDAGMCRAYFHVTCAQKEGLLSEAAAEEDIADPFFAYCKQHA

CATTAGATGATAGCATTAGATGATAG (double strand) [AT-rich probe]
binding result [1]: binds more weakly
binding result [2]: binds more weakly
